Values quoted from earlier work in US12134608B2, “Benzimidazole derivatives as dual histamine H1 and histamine H4 receptor ligands” (BIOPROJET, priority 2017, dated 2024).
At least one structure is not confirmed: it was looked up by name or label, or the drawing left a doubt.

Settings: allergic conjunctivitis; Nakano Y et al. Eur J Pharmacol 2009; cited from earlier work

In the case of CN1CCN(C(=O)c2cc3cc(Cl)ccc3[nH]2)CC1 [JNJ7777120], the eye scratching behavior is given as “inhibited eye scratching behavior”.
